# Assay results as given in patent EP3694851B1, “ENVIRONMENTALLY DEGRADABLE QUINOLONE ANTIBIOTICS HAVING A HEMIAMINAL STRUCTURAL UNIT” (priority 2017, dated 2019).
# Experiment: Abiotic hydrolysis (pH-dependent, phosphate-buffered saline, HPLC)
# Conditions: chosen pH conditions (pH 6, pH 7,4 at 37°C; pH 9 at room temperature; 28 days)
# Description: Der pH-Wert wurde auf pH 6, pH 7,4 oder pH 9 eingestellt. Die Ansätze wurden bei 37 °C für pH 6 und 7,4 und bei Raumtemperatur für pH 9 unter Schütteln (250 rpm) für 28 Tage inkubiert. An Tag 0, 1, 7, 14, 21 und 28 wurden Proben (700µL) für die HPLC Analyse entnommen. Der Quotient der Ausgangskonzentration co durch die Konzentration am jeweiligen Zeitpunkt (ct) wurde kalkuliert und als natürlicher Logarithmus gegen die Inkubationszeit aufgetragen.
# Eine NUCLEODUR® RP-C18 (CC 125/4 100-5µm C18 ec) Säule und mobile Phasen bestehend aus 0.1 % Ameisensäure in hochreinem Wasser (CH2O2: Solution A) and 100 % Acetonitril (CH3CN: Solution B) wurden verwendet. Die Flußrate wurde auf 0.5 mL min^-1 eingestellt. Die Temperatur des Säulenofens wurde auf 25 °C eingestellt und das Injektionsvolumen betrug 10 µL. […] Die Testsubstanzen wurden durch einen UV/Vis Detektor bei 270 nm detektiert. Die Fließgradientenmethode wurde angewendet wie in Tabelle 1 aufgelistet. Tabelle 1 : Fließgradientenbedingungen zur chromatographischen Analyse der Testsubstanzen
structure (smiles),measurement,value
"O=C(O)c1cn(C2CC2)c2cc(N3CCNCC3)c(F)cc2c1=O [Ciprofloxacin, reference compound]",Instabilität unter den gewählten pH-Bedingungen,Weder das verbleibende Fragment noch die Ausgangssubstanz Ciprofloxacin waren unter den gewählten pH-Bedingungen instabil
